No constants are given. Whether binding was seen depends on the method and setting. Binding seen in cells or lysates may run through a third protein. Some entries that bind do so weakly or less than the wild type.
Target: T1, DRF1 (DBF4 related factor 1) (human (endogenous in MCF10A)) (UniProt Q8NFT6)
T1 sequence: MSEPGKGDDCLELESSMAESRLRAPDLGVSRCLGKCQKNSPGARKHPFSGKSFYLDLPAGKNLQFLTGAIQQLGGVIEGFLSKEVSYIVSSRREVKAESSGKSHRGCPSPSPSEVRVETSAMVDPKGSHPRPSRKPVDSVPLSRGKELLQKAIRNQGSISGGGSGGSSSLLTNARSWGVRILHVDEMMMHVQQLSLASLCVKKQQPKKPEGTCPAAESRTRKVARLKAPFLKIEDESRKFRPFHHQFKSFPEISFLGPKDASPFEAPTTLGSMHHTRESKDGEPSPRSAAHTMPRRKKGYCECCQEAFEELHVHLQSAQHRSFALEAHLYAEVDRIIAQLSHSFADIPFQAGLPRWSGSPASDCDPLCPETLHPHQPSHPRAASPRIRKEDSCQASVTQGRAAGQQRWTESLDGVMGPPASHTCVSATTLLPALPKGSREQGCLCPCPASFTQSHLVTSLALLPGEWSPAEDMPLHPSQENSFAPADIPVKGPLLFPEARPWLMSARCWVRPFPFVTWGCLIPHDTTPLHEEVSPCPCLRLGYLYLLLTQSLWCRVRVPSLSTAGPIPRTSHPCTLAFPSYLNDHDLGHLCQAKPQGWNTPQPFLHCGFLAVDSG
Assay: co-IP; anti-DRF1 mAb 5G4 (or mouse IgG as control) prebound to protein A/G beads; 1 mg precleared MCF10A EditR lysate in CSK buffer (300 mM NaCl, 10 mM PIPES pH 6.8, 300 mM sucrose, 1.5 mM MgCl2, 1 mM DTT, 0.5% Triton X-100); 2 h at 4°C; 5 washes; CDC7 detected by western blot

Sequences of proteins named here, by UniProt entry; tags and fusion partners are left off.
UniProt O00311: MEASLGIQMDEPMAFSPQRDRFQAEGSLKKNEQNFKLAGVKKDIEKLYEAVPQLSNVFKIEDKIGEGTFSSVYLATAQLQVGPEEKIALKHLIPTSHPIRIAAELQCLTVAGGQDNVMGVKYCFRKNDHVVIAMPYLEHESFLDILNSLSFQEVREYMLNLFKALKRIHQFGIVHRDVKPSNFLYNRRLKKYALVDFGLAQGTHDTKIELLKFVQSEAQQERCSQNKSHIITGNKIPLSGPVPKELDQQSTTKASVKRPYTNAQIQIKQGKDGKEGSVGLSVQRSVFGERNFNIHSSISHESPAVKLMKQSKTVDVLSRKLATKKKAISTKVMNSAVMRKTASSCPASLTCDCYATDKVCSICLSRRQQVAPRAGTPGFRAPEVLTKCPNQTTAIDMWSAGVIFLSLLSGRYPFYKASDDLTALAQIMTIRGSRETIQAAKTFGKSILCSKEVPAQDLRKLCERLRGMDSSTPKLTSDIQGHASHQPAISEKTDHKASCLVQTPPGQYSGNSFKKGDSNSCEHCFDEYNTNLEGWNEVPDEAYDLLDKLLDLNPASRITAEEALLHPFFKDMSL

binding: binds
Substance: CDC7 kinase (from UniProt O00311 1-574) (enzyme)
